We go through 1 sequence from patent US6407062.

Protein sequences, listed by entry. Tags and fused reporters are not part of them. Chains listed by the source or under a name are the forms on record and can include a tag or linker.
UniProt P23804, other isoform, or with tags, fused parts or gaps: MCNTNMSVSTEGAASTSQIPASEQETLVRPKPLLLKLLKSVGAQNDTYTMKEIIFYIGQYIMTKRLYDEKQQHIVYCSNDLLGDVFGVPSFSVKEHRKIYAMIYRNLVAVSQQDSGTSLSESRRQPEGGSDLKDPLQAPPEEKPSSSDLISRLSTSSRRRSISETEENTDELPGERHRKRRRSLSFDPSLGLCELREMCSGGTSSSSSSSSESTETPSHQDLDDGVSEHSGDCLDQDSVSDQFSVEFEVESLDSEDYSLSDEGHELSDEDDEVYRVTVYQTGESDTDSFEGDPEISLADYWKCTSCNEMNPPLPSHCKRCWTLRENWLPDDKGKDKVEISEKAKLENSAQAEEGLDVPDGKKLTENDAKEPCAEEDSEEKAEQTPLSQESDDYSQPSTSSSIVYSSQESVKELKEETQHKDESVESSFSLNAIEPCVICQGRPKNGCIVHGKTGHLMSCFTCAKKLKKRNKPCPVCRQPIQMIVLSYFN

The target in series [1] is mdm2 (UniProt P23804). Nature of the series: EMSA. The note with it: mdm2 did not bind probe nor affect mobility of p53 complexes; protein in a lysate after overexpression; label: 32P 5'-end. In general terms: A gel shift assay detects complexes by their altered migration in electrophoresis.
Series [2] deals with T1, p19ARF (Mus musculus) (UniProt Q64364).
T1 sequence (limits assumed): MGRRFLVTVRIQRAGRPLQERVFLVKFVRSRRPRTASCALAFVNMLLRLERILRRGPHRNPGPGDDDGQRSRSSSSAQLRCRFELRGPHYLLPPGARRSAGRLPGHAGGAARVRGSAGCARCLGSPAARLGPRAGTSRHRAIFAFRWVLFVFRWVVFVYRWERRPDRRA
Nature of the series: EMSA. The note with it: ARF alone does not bind probe; binds p53-DNA complex; protein in a lysate after overexpression; protein details: baculovirus Sf9 extract; label: 32P 5'-end.

Where cells or extracts were used, other partners may take part. A negative result means that nothing was seen under these conditions. For some assays here: Tags and fusion partners may be left off the protein sequences shown.

With “AGGCATGCCTAGGCATGCCT (double strand) [double p53 consensus oligonucleotide]”, the binding result in series [1] and in series [2] was “no binding” in each case.
